Source: patent US20180289843A1, “COATING FOR METAL NANOPARTICLES” (AGENCY FOR SCIENCE, TECHNOLOGY AND RESEARCH, priority 2015, published 2018)
[ ]: non-standard residue; d: D form. pS = N[C@@H](COP(=O)(O)O)C(=O)O; Thr(ol) = C[C@@H](O)[C@H](N)CO

assay: Yield of preparation of ligand coated iron oxide nanoparticles after ligand exchange and G25 purification; format: physicochemical; details: single ligand shell, prepared using PBS and Tween 20, after G25 purification

Row | Molecule | Yield (%)
1 | H-[pS]VVV[Thr(ol)] [Peptide S13] | 17
2 | PO3H2-O-CH2-CO-Ser(PO3H2)-NH-PEG4-OH [Peptide S7] | 63

same assay, conditions: single ligand shell, prepared using water only, after G25 size-exclusion purification

Row | Molecule | Yield (%)
3 | O=P(O)(O)SCCCCCCCCCCCOCCOCCOCCO [Ligand L1, (HO)2-PO-S-C11-EG3-OH] | 32
4 | O=P(O)(O)SCCCCCCCCCCCOCCOCCOCCOCCOCCOCCO [Ligand L2, (HO)2-PO-S-C11-EG6-OH] | 44
5 | O=P(O)(O)SCCCCCCCCCCCCCCCCO [Ligand L3, (HO)2-PO-S-(CH2)16-OH] | 0
6 | NC(COP(=O)(O)O)C(=O)NCCOCCOCCOCCO (centres unmarked) [Peptide S1, H-Ser(PO3H2)-NH-PEG4-ol] | 2
7 | O=C(CNC(=O)COP(=O)(O)O)NCCOCCOCCOCCO [Peptide S6, PO3H2-O-CH2-CO-Gly-NH-PEG4-ol] | 0
8 | H-Ser(PO3H2)-Ser-Ser-Ser-Ser-ol [Peptide S9] | 8
9 | H-[pS]FFF[Thr(ol)] [Peptide S11] | 0
10 | H-[pS]VVV[Thr(ol)] [Peptide S13] | 80
11 | PO3H2-O-CH2-CO-Gly-NH-PEG4-OH [Peptide S5] | 49
12 | PO3H2-O-CH2-CO-NH-PEG-ol [Peptide S3] | 0
13 | PO3H2-O-CH2-CO-Ser(PO3H2)-NH-PEG4-OH [Peptide S7] | 80
14 | PO3H2-O-CH2-CO-Ser(PO3H2)-NH-PEG4-ol [Peptide S8] | 91
